From publication PMC6255703
For some assays here: A negative result means that nothing was seen under these conditions. At least one verdict rests on a figure or table, not on a statement of the authors. For some assays here: Tags and fusion partners may be left off the protein sequences shown. For some assays here: For at least one entry, the source does not settle the construct or the ends of the probe.

Columns and labels:
[1] = target: T1, GST-tSlARF10 (GST-SlARF10 B3 domain) (Solanum lycopersicum) (UniProt E2FHH6); assay: competition with a labelled probe; settings: mutated probe did not abolish shift; LightShift Chemiluminescent EMSA Kit, 6% native polyacrylamide gel; pH and temperature not stated; recombinant protein; residues 1-366; protein details: GST (pGEX-4T-1)
T1 sequence (looked up): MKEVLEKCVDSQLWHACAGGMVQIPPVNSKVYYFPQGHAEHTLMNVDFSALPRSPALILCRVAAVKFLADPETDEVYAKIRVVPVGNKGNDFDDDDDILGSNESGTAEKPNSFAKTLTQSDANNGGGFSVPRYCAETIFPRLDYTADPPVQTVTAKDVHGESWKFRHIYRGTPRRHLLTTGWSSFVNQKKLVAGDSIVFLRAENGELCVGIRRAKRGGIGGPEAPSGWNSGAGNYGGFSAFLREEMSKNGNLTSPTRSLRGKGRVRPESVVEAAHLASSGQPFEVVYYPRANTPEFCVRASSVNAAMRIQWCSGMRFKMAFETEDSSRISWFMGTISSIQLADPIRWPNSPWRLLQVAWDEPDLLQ

[2] = target: T1, GST-tSlARF10 (GST-SlARF10 B3 domain) (Solanum lycopersicum); assay: EMSA; settings: abolished dose-dependently by unlabeled same-sequence competitor; LightShift Chemiluminescent EMSA Kit, 6% native polyacrylamide gel; pH and temperature not stated; recombinant protein; residues 1-366; protein details: GST (pGEX-4T-1); label: 3' biotin (unlabeled as competitor)
GST = assay: EMSA; settings: GST only, text does not say which of the two SlGLK1 probes; LightShift Chemiluminescent EMSA Kit, 6% native polyacrylamide gel; pH and temperature not stated; recombinant protein; label: 3' biotin (unlabeled as competitor)

“AGTTTTTAAAAAAATTATTAGTAAAAAATAAATAAATTTTACCGTCAAAA (double strand) [SlGLK1 mutant probe 1 (F1/R1)]”: no binding [1].
“AGTTTTTAAAAAAATTATTAGTGAGACATAAATAAATTTTACCGTCAAAA (double strand) [SlGLK1 promoter probe 1 (F1/R1)]”: binds [2].
“CCACTTCCAACATAACCCTACCAAAAAAAATTTCAACTTGCAAGCCTTTC (double strand) [SlGLK1 mutant probe 2 (F2/R2)]”: no binding [1].
“CCACTTCCAACATAACCCTACCATGTCTCATTTCAACTTGCAAGCCTTTC (double strand) [SlGLK1 promoter probe 2 (F2/R2)]”: no binding (GST); binds [2].
